Experimental data reported in patent publication US20220356255A1 (CENTESSA PHARMACEUTICALS UK, published 2022).
These are yes or no findings as the source states them, for the method shown. Some entries that bind do so weakly or less than the wild type.

By UniProt entry, the sequences of proteins in these tests, tags left out. Where a name states a change or a piece, a line headed by the entry shows the natural chain unless it says otherwise. Chains listed by the source or under a name are the forms on record and can include a tag or linker.
cynomolgus PD-L1 on transfected HEK293FF cells (G7PSE7, form named): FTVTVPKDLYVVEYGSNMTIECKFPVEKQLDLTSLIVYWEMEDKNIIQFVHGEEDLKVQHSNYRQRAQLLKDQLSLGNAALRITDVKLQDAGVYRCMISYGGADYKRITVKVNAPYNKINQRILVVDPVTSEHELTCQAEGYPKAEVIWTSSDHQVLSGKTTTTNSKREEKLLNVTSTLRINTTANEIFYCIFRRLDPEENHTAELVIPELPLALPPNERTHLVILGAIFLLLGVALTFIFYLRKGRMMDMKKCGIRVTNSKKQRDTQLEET

Biological target: cynomolgus PD-L1 on transfected HEK293FF cells (cynomolgus) (UniProt G7PSE7)
Experiment: assay not given; methods describe flow cytometry on transfected HEK293FF cells

B1: mAb 2A09 (antibody, V domains shown)
VH: QVQLVQSGGGVVQPGRSLRLSCAASGFTFSSYGMYWVRQAPGKGLEWVAVISYDGSNKYYADSVKGRFTISRDNSKNTLNLQMNSLRAEDTAVYYCAKGALTHWGVVIGDGMDVWGQGTTVTVSS
VL: NFMLTQPHSVSESPGKTVTISCTRSSGSIASNYVQWYQQRPGSSPTTVIYEDDQRPSGVPDRFSGSIDSSSNSASLTISGLKTEDEADYYCQSFDSTNPWVFGGGTKLTVL
notes: Fully human; also called 2A09_WT; 2A09 WT
Question: With B1 as the binder, how does the binding read?
Answer: The binding was “binds”.
